Laboratory results: PubChem BioAssay AID1159578 (Peter MacCallum Cancer Centre, 2015)
In all, the deposit lists about 18,000 reagents; this is a random part of them. About 1,030 of all reagents (5.7%) were called active. 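Inactive calls also include pools with fewer than 3300 nuclei, whose migration was not assessed.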 Raw values vary from plate to plate and are shown uncorrected. Reagents against one gene are numbered here. Further read-outs or replicates are left out here.

- Aim: 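Genome-wide hunt for genes controlling movement of lymphatic endothelial cells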 (primary screen)
- System: human lymphatic endothelial cells
- Reagent: siRNA pool against human genes, 40 nM
- Time to read-out: 48 h after transfection
- Read-out: 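Cells stained with dye and imaged after a scratch; covered wound area and nuclei counted, duplicates averaged, migration set against mock wells and turned into a robust z-score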
- Direction: migration robust z-score: higher = faster migration into the scratch; nuclei per well: higher = more cells in the well
- Active means: 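Migration changed when robust z exceeds 2 or falls below -2 and mean nuclei number is at least 3300; otherwise not called changed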
- Calls: active = migration changed; inactive = no migration change, or too few cells

CD37 showed migration robust z-score 0.66; nuclei per well, duplicate mean 6001; inactive.
Knock-down of SLIRP came out at: migration robust z-score 0.64; nuclei per well, duplicate mean 5260; inactive.
For TRIM31 the deposit lists migration robust z-score -2; nuclei per well, duplicate mean 4997; inactive.
After knock-down of PCDHA3, the screen gave migration robust z-score 0.68; nuclei per well, duplicate mean 6396; inactive.
After knock-down of POLR2C the results were migration robust z-score -3.94; nuclei per well, duplicate mean 4204; active.
AMOTL1 scored migration robust z-score 0.48; nuclei per well, duplicate mean 5718; inactive.
DNAI4 gave migration robust z-score -3.58; nuclei per well, duplicate mean 2419; inactive.
For CSAG2 #1 the deposit lists migration robust z-score -1.34; nuclei per well, duplicate mean 6443; inactive.
After knock-down of CSAG2 #2, the record shows migration robust z-score -0.9; nuclei per well, duplicate mean 4676; inactive.
Knock-down of CMC1 gave: migration robust z-score 3.65; nuclei per well, duplicate mean 5846; active.
Depletion of WDR81 came out at: migration robust z-score 0.11; nuclei per well, duplicate mean 6648; inactive.
OBP2B gave migration robust z-score 0.16; nuclei per well, duplicate mean 5446; inactive.
With knock-down of RARRES1, the screen gave migration robust z-score 0.52; nuclei per well, duplicate mean 6121; inactive.
Depletion of PSME1 gave: migration robust z-score -0.46; nuclei per well, duplicate mean 5323; inactive.
